PubChem BioAssay AID1224826 – NIAID | 2016

Test: 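Regulators of Tlr4 signalling leading to Tnf-alpha expression in macrophages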 (primary screen)
Cells: RAW264.7 G9 macrophages from mouse bearing reporters for p65 (GFP) and the Tnf promoter (mCherry)
Reagents: siRNA pool against mouse genes, 100 nM
Time to read-out: 16 h of LPS stimulation, after 2 days of siRNA transfection
Challenge: bacterial lipopolysaccharide (Salmonella minnesota R595), 10 ng/ml
Detection: 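Nuclear mCherry signal of the Tnf promoter reporter measured by imaging after background removal, scaled to each plate median and turned into robust z-scores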
Scale: Tnf reporter robust z-score: higher = stronger Tnf promoter reporter signal after LPS; Tnf reporter intensity: higher = stronger Tnf promoter reporter signal
Active means: 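a well counts as active at a score of -1.3 or below (Tlr4 knock-down control median) or above 3 (raised signal); controls and wells holding fewer than 50 cells are excluded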
Meaning of the calls: active = Tnf reporter clearly lowered or raised; inactive = no clear change in Tnf reporter
The whole screen tested about 17,000 reagents; below is a random part of them. In the full data, about 1,110 (6.6%) are marked active. 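Active means lowered or raised reporter signal; replicate intensities are raw and not normalised per plate.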 A number with no mark means an inactive call. A reagent listed more than once was tested more than once; the source does not tell the runs apart.

Gene	Tnf reporter robust z-score	fewer than 50 cells in well	Tnf reporter intensity, replicate 1	Tnf reporter intensity, replicate 2
Nkx2-6	0.1	enough cells in well	220	133
Cntn1	-0.17	enough cells in well	242	186
Mapk14		fewer than 50 cells per well; well left out of calls	131	97.8
Nme1		fewer than 50 cells per well; well left out of calls	120	130
Sptssa	0.59	enough cells in well	311	93.3
Bsg	1.05	enough cells in well	146	289
Mki67	1.16	enough cells in well	365	288
Yeats4	-0.29	enough cells in well	244	201
F11r	-0.83	enough cells in well	169	161
Pcdhb5	-0.82	enough cells in well	216	99.8
Fbxw13	0.96	enough cells in well	249	150
Atp9b	0.65	enough cells in well	234	177
Iapp	-0.99	enough cells in well	169	116
Pnrc1	0.65	enough cells in well	309	226
Scart1		fewer than 50 cells per well; well left out of calls	130	81.1
Scube1	-0.97	enough cells in well	86.1	85.7
Or4f59	0.63	enough cells in well	226	141
Tatdn1	-0.38	enough cells in well	90.7	91.4
Frg1	-0.66	enough cells in well	209	94.6
Arhgap25	-1.09	enough cells in well	232	97.2
Sox2	-0.89	enough cells in well	231	120
Eif2s3y	-0.18	enough cells in well	187	101
Pth	-0.34	enough cells in well	319	56.2
Pdcd2	-0.08	enough cells in well	243	171
Zfp653	-1.88 (active)	enough cells in well	73.8	55.8
Large1	-1.02	enough cells in well	167	92
Ntm	0.53	enough cells in well	261	238
Cpn1	0.26	enough cells in well	259	217
Nkx2-9	2.56	enough cells in well	334	293
Naip1	2.21	enough cells in well	274	254
Lonp2		fewer than 50 cells per well; well left out of calls	45.5	17.2
Fgd2	0.76	enough cells in well	322	164
Abt1	-1.04	enough cells in well	104	100
Or4a79	1.27	enough cells in well	264	168
Ppp1r3c	2.3	enough cells in well	434	344
Bnip2	0.99	enough cells in well	173	245
Cdc123	-0.06	enough cells in well	284	201
Cd59a	-0.46	enough cells in well	212	171
Tomm40		fewer than 50 cells per well; well left out of calls	204	0
Magea7-ps	0.31	enough cells in well	218	155
Yju2b	-0.09	enough cells in well	201	48.7
Slc9a8	-1.56 (active)	enough cells in well	45	49.5
Emc1		fewer than 50 cells per well; well left out of calls	56	155
Gch1	0.3	enough cells in well	310	234
Vmn1r63	0.48	enough cells in well	153	134
Chd9	-0.46	enough cells in well	134	134
Larp6	1.05	enough cells in well	269	172
Cdh3	-0.29	enough cells in well	241	169
Depdc7	0.09	enough cells in well	185	161
Lamp1	0.64	enough cells in well	222	168
Grk2		fewer than 50 cells per well; well left out of calls	171	142
Grk2	0.23	enough cells in well	205	364
2610318N02Rik	-0.15	enough cells in well	236	59.4
Pgd	1.66	enough cells in well	198	238
Mrps6	0.13	enough cells in well	246	105
Kcnd1	-0.19	enough cells in well	222	143
Or2h2c	0.35	enough cells in well	162	151
Pax8	0.87	enough cells in well	290	252

Limited to “fewer than 50 cells in well” (5 entries from above):
Arhgap25: enough cells in well
Sox2: enough cells in well
Eif2s3y: enough cells in well
Pth: enough cells in well
Pdcd2: enough cells in well
